Assay results published in article PMC8468827.
No constants are given. Whether binding was seen depends on the method and setting. In cells and extracts the contact can be indirect. Here binding means that the protein was enriched with, or labelled near, the bait; the list need not be complete.

Protein sequences, listed by entry. Tags and fused reporters are not part of them.
UniProt Q9VQ93: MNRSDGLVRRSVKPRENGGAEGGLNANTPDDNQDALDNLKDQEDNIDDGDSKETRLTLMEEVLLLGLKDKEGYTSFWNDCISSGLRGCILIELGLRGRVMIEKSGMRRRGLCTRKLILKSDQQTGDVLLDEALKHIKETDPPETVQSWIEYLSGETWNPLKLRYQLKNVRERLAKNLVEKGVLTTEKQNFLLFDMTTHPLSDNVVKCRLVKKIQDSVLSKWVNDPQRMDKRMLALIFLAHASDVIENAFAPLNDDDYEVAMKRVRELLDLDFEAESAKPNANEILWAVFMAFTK

B1: Kinesin-like protein at 10A (Klp10A) (protein, UniProt Q960Z0 1-805)
chain: MDMITVGQSVKIKRTDGRVHMAVVAVINQSGKCITVEWYERGETKGKEVELDAILTLNPELMQDTVEQHAAPEPKKQATAPMNLSRNPTQSAIGGNLTSRMTMAGNMLNKIQESQSIPNPIVSSNSVNTNSNSNTTAGGGGGTTTSTTTGLQRPRYSQAATGQQQTRIASAVPNNTLPNPSAAASAGPAAQGVATAATTQGAGGASTRRSHALKEVERLKENREKRRARQAEMKEEKVALMNQDPGNPNWETAQMIREYQSTLEFVPLLDGQAVDDHQITVCVRKRPISRKEVNRKEIDVISVPRKDMLIVHEPRSKVDLTKFLENHKFRFDYAFNDTCDNAMVYKYTAKPLVKTIFEGGMATCFAYGQTGSGKTHTMGGEFNGKVQDCKNGIYAMAAKDVFVTLNMPRYRAMNLVVSASFFEIYSGKVFDLLSDKQKLRVLEDGKQQVQVVGLTEKVVDGVEEVLKLIQHGNAARTSGQTSANSNSSRSHAVFQIVLRPQGSTKIHGKFSFIDLAGNERGVDTSSADRQTRMEGAEINKSLLALKECIRALGKQSAHLPFRVSKLTQVLRDSFIGEKSKTCMIAMISPGLSSCEHTLNTLRYADRVKELVVKDIVEVCPGGDTEPIEITDDEEEEELNMVHPHSHQLHPNSHAPASQSNNQRAPASHHSGAVIHNNNNNNNKNGNAGNMDLAMLSSLSEHEMSDELIVQHQAIDDLQQTEEMVVEYHRTVNATLETFLAESKALYNLTNYVDYDQDSYCKRGESMFSQLLDIAIQCRDMMAEYRAKLAKEEMLSCSFNSPNGKR
B2: Rsph9 (protein, UniProt Q8T3V7 1-281)
chain: MNLEFFTEGLDCLMYCGMKLSPEQRILIENSLIALQNDNRFTGMYLWGRITATKNDYYIAFGYTNDCLKDRKYFYSLDQFQWQLLPFVQSPKIFQATILAREPFIGDPSLMTYVKLDPTFDIVGNQVAGISRPEVVKLKEEERLAAIVFIITEECAICPRGAFYKMTDGRVIPNQMFRGLNDLQIDNQSYYQLYRLPRNDLKVNLAKRSDYNYAIDFLDTIDCVIPLCQAFALNMQRNEGLVIIKSCLWLGMTFFHKINSHKHGFLYLGDGKKNFDLLFMY
B3: Kinesin-like protein at 59D (Klp59D) (protein, UniProt Q9W1U1 1-729)
chain: MDRIKIGEQLLFQRSDGRVHQVVCTAKNLERDSITGEWTEGTVVKGKEVPLSTLIGINHHIFAENQPPISKPPSSLLPKPRGSSPTGGPKTHTGNPYAERMRVQDGRSKIATRKTDPAAVGAGNHELGRAHTPRVPAGRPDRDASPTQGRKSQGGNNSNQRFSSVVREVNRMKEQREKRRARQAEQLQEKDALRRNNPGNPNWEVSVMLRQYRSTLIFSPLRCLDPNGGTVQQITVCVRKRPMSRKEENSKNLDIITVPSADSLIVHELRLKVDLTKFLEHHKFRFDYTFDEECSNALVYDHTARPLIRTMFEGGNATCFAYGQTGSGKTHTMGGEFFGKVQDCGTGIYAMAARDVFEEVSRPEYRQMGAKITCSFFEIYGTKVFDLLLPNKPMLRVLEDARQQVVVVGLTEMPVTKVEDVLRLIEHGSKERTSGQTSANAKSSRSHAVFQIALHFPDSWGPHGKCSFVDLAGNERGADTQSADRQTRIEGAEINKSLLALKECIRALSRQSSHLPFRGSKLTQVLRDSFVGGKKNKTCMIAMISPSMSCVENTLNTLRYADRVKELIAKEDEHLQSVEGDGEKSPDLNEESEPEMMADEEGDEEPEDEDNQHLTISSEEASSYNNMSYDMSFNHTLNILGPSRNVDIQEVAEQHALLVENLETYAHNFRQLKTDKEIEQYTQNSESALMKLLAMVNRTRDVTHNYNTQKLLKEENQNAYKKGELDESE
B4: Centrosomal protein of 97 kDa (CEP97) (protein, UniProt Q9VQV7 1-806)
chain: MSGDESGEEKHVLNLSKQKLKKVPKQDDAHSIRQLILDENELQKIDNIDSYLKIETLSLARNQLLRMYGVCRLHCLRELNLSFNGILSIEGLKECIHLRVLNLEGNNIKTIEHLNTNVNLECLNLADNSIGSISDMSYLRNLKELYLHGNRLTHLRQCDKCLPTSLETLTLAKNSINDLNEICTLSHLSNLLSISIADNPCVTMINSLDGFDYRPFVLNWCMSLKYIDGFVVDPIESLKAEWLYSQGRGRQFRVGEQQGLAKYLSSVCPLVGKALENENDRKLRLILSKAQHHQRQLQEEIMDNANSSASTSPSSHRKKPTSRIQSPRFSRLSGRQGSPESMVNSYHGNSSNNSIVSDNGSTNHSLQMSISLIENIKNDGEGFSLAGSGMSSSVTTKTYNSTESTPRNITPNPYNDQTFISQTPSGGPLAAASKMVPVPETLMSPDVCPAAVAQRVTVTALNPQLHKTKINKNKDNKLNLPRVRSPQLKRNQSPTSSPRRMANKCSADNMQAPEKLQQSAVLADSGGFSTDDDGEQINIEKLRAIRKMAAQKQQQMHQEQLKQQVDNNLNCQDRLIEHVTESSAVTIQKMWRGYHTRKKTNKDIAERLQRRRTQEYIEQLGKDMLLTKAQLENERKIQQLQMQAINALWKKVSTMEVDPKGIPAAAEQGEDSNGGGSGHLSLDQNSAAVVNDLAKRCTMLTDQVQMLQSSIGTIVNCLTMVCNLPQDAIKKQAEIIDCSSTQTDLIAVHTPQIEDLTNFPFTKTRPSTLALESKHEAALACPKIDELNDVDLKETQEDSENLDKDP
B5: CG9313 (protein, UniProt Q8MSJ9 1-739)
chain: MATKPGKGDGKQVKGKRTSKNKTDGPGGGGGDADDFDAWMKSRQLLKPDDQLDLTEAELGEEITKVLTPTNTNIVRNLVVYSFKEGEFVPAPLPGNTVTLIAFAGNSLHVDSDEGRRQIEESDEIGYPLPMPNYTVVEQRETDNVDGEEGEGEEDDDGATAKDAAVEDEDVEEEDDEEAKGTEGDEGEGEGEGEGAAARQEDDEPAHQAAAVSSKKRKLINQFNYCERGALTYTNPKRNVDTQTIPPPRSQFGANVLQWVIYDSYMENFAESQKDGTKKEERKRGKREKKFRDKSAIAEQLNKKYLKCWQILERMINQNIYDDIAHDYRYWEDPADEFREGEGNLLPLWKFQYDKTKKMNVTDILFNPSYYDLFAVCFGSHDFMKQTNEGYLCLFTVKNPSFPDYIIQTDCGVMCCDIHPTYPFLAVIGLYDGNVAVYNLREDCKEPLYVSRGVNCKHGECVWQIKWGLDMADGEVNFFSVSSDGRVFNWILMQNKLWVTTIITLYRENGLVDGPDGTKVTLKSGGSCMVFHPVDNKIFLVGTECGYIYKCSTAFSSKYLMTYYAHNMSVYRIDFNRFNSNIFVSCGADWMVKVWEDMRPDPLFIFDLGAAVGDVKWAPYSSTVFAAVTTEGKVHVFDLNVNKYKAICIQAVVPKRKNKLTRLSFNEKLAFIVVGDEKGVTTSLKLSPNLRMMVKPPKKQLYLDQNTLQIGKLEKLLSLVRELPEGSTAVPDAATTVRS
B6: Sec22 (protein, UniProt M9PGI6 1-213)
chain: MALLTMIARVIDGLPLVGTMQDDEQVPSGRSILDYQNQAKMLFRKLGTHSPARCSIETGPYLFHYLIENDVCYLVMVDKMYSKRLAFNYLEDLAQEFHANYGRRVNSVTRPYAFIEFDVYIQKAKKQLTDRRRNISNINTQLQDVQRIMVQNIDDVLQRGTVLAELDTKTQNLSMMSQKYKKDAKLLNRKSMYVKAMALGMILLVFIMYFWVL
B7: Ataxin-2 (dAtx2) (protein, UniProt Q8SWR8 1-1084)
chain: MNNNSKRKTRPTGGGASGGISRYNSNDNSLRPTNNKAGAGGGNGGAAVRPSAQGVYNNTFFMHSATALVGSVVEVRLRSGNIYEGVFRTFSGNFDIALELPACIKSKNLPEEGKVPKHIIFPADTVVTIVAKDFDSQYATAGAFQTDGAISDKCNGARPDEKELEPWDSGANGDIDIELDSAANGWDPNEMFRKNENTFGVTSTFDDSLASYTVPLDKGDSLEFKEAEAKAEKLAAEIENNPTCRDRLDLENGDEEALFAAVERPSTEQDQRGDRGDRERNDRDREREERDRDRDRDRGNKPRGAGDFQLRETMSSDRYITKQTRSITGPQLSHVGMSSQGSGRDRDTRGDGSMMMQSGGGSGQGGSTQSTAALMLAGGLKGVGPAPSANASADSSSKYSGGSMVKRKTVPQGGKVMRNNVPTGGSNVSVSQGGNGNSVGQNKGGYQPSMGMPSQYSYQGNSQIMHGSSQYRNQSHMGGANKLNGDSNANTNKPLPQRQMRQYQGSQSNSSLNYGGEPQSLGKPVHGSHGGHPGQNSNSPPLQTAGPQQQQQQQQQQQQQQQQQQPPQQQQHQNIQPQGQNTQPARQVRTRDNQMQELRQFGQDFQLAPSNTSPPQQQQQQQQQQQQHQVQQQQQRALQQSASPPQQQQQQQQQQQHVVLHQVPQTHLHQAALSQPHYVPQQQPQQAPLPQQQHVPHHMQQKAQQQQLVETQHQHVQKQHQSQPQVQQPPPQLLQDPSQQPLPIYHTMPPPQTSPVVVTSPVLLEQPPPQPMPVVQQQQTQQLATPKPEVSPAPPSSNTTTPTGIASTPTAGVIASAGSEKTTPAAPTPTSNSATVPTGTAATAGGATGTTPVVKKHVLNPSAKPFTPRGPSTPNPSRPHTPQTPVPMTNIYTTTGGHVPPAANQPIYVMQPQHPFPPQTHPQAGQPPRLRRSNYPPMAASQMHVSASAATGQPLITAGPIPQFIQYGHAPHQQQFQSHTYAPMQMRVYPDQPQQLQFMTQTPQSTTPSPGQPHQQFHPPPQPSPAGGGPQPAFTPPTQAATYQLMCVHPQSLLANHYFPPPTPQHPQQNQQQYQIVMQQHQPQ
B8: Sec24CD (protein, UniProt Q9VQ94 1-1193)
chain: MNPNMYGPPPTQFQQQPQFGAPPPNSGGWPPQQQQLPQQQPPQQQLPPQQQQQQPQYGAPPPTSAASQPYLNGNYQQQLATSMGGLSVGGGVGGANPLKPPLPQGAPAAAAPPPTGFNQFNSNAAPPPTNNNNAAFGAPPPTQAGSYVNGALPPSSTPQSVASGINQMSLNSATLAGLPHMPPPKAATPGAAPGQPPIPAAGSTSQPPLPGQPPLPGQPPFSGQIPTSQPAPSPYGVPSSRPGQPQLPPGATPPTYTQPGLPPQQQQGIPPLQQPGIPQQQPGFPPQQPGLPPLSQPGLPPQPGAPYGAPQQGGYSGGFPGQAPGGFPGAPPPLPGQQAAAPPQFGAPQPGYPGQQPGYPPQPGQQPMPGYPPQPGQQLGGPGYPPQPGAGFPGQPGRPGFNQPPMPGAGNMYQQAPQARRLDPDQMPNPIQVMIENQRLSGGPFVTNQPGLLPPLVTTKFVVHDQGNSSPRFLRSSLYCIPNTGDLLKTTALPLTLNISPLAKVGEGEMEPPIVNFGEMGPIRCNRCKAYMSPNMQFVDAGRRFQCLMCKVTSEVHQNYYQHLDHTGQRVDKHERPELLLGTYEFLATKDYCRNNTPPEVPAFIFIIDVSYNTVKSGLVHLLCSQIKNILKHLPVDQGQDKSKVRVGFITYNSTVHFYNIKSSLAQPQMMVVGDVQEMFMPLLDGFLCHPEESAAVIDALMEEIPRMFADTKETETILYPAIQAGLEALKASNAAGKLLVFNSTLPIAEAPGKLKNRDDRKLLGTDKEKTVLTPQTTAYNTLGQECVQQGCSVDLFVFNNAYIDLATIGQVSRLTGGEVFKYTYFQADVDGKRLIQDIIKNVSRPIAFDAVMRVRTSAGIRPTEFYGHFFMSNTTDVELASIDATKSISIEIKHDDKLAPEENVYLQVALLYTSCSGQRRLRILNLALRVTTTIADVFKCCDLDAMMLFFAKQACFKLMEHSPKQVKDNLIHRSAQILACYRKHCTSPTSAGQLILPECLKLLPLYASCLLKNDAISGGSDMTLDDRSYVIQFILSMDLNQSVSYLYPRFIPIHNVVPEETDLPTPVRCTHEKTQEDGAYILENGVHLFVWLGQALSPDFVQSVFGVQGLQQIALERFNIVPETPLAKRIHGILEQIMKERSRYMRITWLRQNDKLESVFRHFLVEDRGTDGSASYVDFLCHMHKEIKDLLS

Biological target: dGOLPH3-mRFP (Drosophila) (UniProt Q9VQ93)
Assay: affinity purification with mass spectrometry; RFP-trap beads on lysate of 3000 adult testes expressing dGOLPH3-RFP (RFP alone as control); lysis buffer 25 mM Tris-HCl pH 7.4, 150 mM NaCl, 1 mM EDTA, 1% NP-40; washes at 4 °C; nanoLC-MS/MS

binding | Binder
binds | B1
binds | B2
binds | B3
binds | B4
binds | B5
binds | B6
binds | B7
binds | B8
